No constants are given. Whether binding was seen depends on the method and setting. Binding seen in cells or lysates may run through a third protein. Some results given as binding are weak or reduced against the parent protein; the word gives no strength.
Experiments:
[1] = target: V5-epitope-tagged PML I (human) (UniProt P29590); assay: co-IP; HEK293 transiently co-transfected, lysed 48 h later in IP buffer (20 mM Tris pH 8.0, 400 mM NaCl, 1 mM EDTA, 1% Triton X-100, 10 mM NaF, 0.5% DOC); precipitated with anti-V5 and protein G-Sepharose, blotted with HRP-conjugated anti-myc
[2] = target: V5-epitope-tagged PML IV (human) (UniProt P29590); assay: co-IP; data not shown; as for V5-PML I, with a V5-epitope-tagged PML IV construct and myc-tagged PML Ib

Sequences of proteins named here, by UniProt entry; tags and fusion partners are left off. A change or cut given only in a name is not applied to a line headed by its entry. A line that says so, or that is headed by a name, gives the form on record, which may keep a tag or linker.
UniProt P29590: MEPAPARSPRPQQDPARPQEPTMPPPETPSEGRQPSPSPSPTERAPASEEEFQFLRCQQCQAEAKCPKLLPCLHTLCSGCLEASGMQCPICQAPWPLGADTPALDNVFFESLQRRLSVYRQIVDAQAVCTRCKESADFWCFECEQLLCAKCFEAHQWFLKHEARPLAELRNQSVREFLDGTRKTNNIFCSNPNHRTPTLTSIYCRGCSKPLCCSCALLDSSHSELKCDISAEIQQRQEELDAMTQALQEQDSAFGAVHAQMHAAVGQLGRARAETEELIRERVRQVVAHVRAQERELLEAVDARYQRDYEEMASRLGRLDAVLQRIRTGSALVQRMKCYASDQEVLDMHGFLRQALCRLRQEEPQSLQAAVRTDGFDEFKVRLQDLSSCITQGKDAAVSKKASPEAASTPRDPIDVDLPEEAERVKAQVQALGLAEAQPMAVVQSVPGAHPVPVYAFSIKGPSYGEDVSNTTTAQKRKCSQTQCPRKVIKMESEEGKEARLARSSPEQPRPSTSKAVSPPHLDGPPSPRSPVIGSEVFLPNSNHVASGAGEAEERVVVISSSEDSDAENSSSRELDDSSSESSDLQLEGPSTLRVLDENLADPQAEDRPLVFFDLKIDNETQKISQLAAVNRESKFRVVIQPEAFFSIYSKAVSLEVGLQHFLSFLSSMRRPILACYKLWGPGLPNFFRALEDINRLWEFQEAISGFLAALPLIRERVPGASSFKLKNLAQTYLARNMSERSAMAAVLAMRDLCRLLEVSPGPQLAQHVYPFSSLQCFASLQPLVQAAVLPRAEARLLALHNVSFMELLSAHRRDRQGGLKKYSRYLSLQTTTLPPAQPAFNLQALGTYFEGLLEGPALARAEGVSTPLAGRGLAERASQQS
myc-epitope-tagged PML Ib (P29590-14, form named): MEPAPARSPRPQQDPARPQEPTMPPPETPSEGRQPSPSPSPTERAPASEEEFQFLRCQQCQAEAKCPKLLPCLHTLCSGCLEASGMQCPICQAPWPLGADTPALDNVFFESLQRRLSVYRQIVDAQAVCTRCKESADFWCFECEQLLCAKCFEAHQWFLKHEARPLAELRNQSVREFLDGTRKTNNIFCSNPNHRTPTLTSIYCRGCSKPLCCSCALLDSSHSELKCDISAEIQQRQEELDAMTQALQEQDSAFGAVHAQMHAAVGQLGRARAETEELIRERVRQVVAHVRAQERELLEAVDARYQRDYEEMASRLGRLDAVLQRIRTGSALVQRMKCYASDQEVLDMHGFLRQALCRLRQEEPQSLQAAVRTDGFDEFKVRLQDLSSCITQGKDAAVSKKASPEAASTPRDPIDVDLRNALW
V5-epitope-tagged PML IV (P29590, form named): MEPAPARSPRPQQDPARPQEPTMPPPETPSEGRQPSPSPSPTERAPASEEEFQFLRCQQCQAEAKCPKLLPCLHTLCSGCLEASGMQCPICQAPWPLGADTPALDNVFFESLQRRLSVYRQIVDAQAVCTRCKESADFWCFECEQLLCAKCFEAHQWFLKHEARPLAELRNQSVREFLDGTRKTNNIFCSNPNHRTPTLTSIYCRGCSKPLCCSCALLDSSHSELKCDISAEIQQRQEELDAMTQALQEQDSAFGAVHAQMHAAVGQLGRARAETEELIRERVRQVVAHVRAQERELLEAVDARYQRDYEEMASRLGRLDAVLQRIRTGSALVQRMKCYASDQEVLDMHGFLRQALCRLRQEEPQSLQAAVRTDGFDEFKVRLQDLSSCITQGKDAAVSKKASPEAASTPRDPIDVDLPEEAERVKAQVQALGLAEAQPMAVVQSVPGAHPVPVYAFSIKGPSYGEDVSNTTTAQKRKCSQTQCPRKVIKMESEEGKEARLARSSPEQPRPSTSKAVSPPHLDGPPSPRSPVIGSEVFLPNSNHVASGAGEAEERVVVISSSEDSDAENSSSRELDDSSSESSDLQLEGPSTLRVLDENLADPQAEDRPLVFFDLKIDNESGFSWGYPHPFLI

myc-epitope-tagged PML Ib (from UniProt P29590-14 1-423)
binding [1]: binds
binding [2]: binds

— PMC2386554
